Assay results taken from patent JP2017222678A.
These are yes or no findings as the source states them, for the method shown. Some results given as binding are weak or reduced against the parent protein; the word gives no strength.

Protein sequences, listed by entry. Tags and fused reporters are not part of them. Residues count along the entry.
UniProt P10646, residues 29-304: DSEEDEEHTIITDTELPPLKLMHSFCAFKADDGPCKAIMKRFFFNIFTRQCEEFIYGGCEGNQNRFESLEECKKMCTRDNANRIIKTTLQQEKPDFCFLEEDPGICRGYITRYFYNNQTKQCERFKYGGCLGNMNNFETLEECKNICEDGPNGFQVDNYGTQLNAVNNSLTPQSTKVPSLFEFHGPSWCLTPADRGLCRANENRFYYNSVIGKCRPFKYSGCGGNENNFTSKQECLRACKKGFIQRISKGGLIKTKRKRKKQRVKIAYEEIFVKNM

B1: TP-2A5.1 (Fab, V domains shown)
VH: QVQLVESGGGLVQPGGSLRLSCAASGFTFSSYGSWVRQAPGKGLEWVSVISGSGSSTYYADSVKGRFTISRDNSKNTLYLQMNSLRAEDTAVYYCARVNISTHFDVWGQGTLVTVSS
VL: DIELTQPPSVSVAPGQTARISCSGDNIPEKYVHWYQQKPGQAPVLVIHGDNNRPSGIPERFSGSNSGNTATLTISGTQAEDEADYYCQSFDAGSYFVFGGGTKLTVLG
B2: TP-2G6 (Fab, V domains shown)
VH: QVQLQQSGPGLVKPSQTLSLTCAISGDSVSSSSAAWSWIRQSPGRGLEWLGIIYYRSKWYNDYAVSVKSRITINPDTSKNQFSLQLNSVTPEDTAVYYCARHSMVGFDVWGQGTLVTVSS
VL: DIVLTQSPATLSLSPGERATLSCRASQYVTSSYLAWYQQKPGQAPRLLIYGSSRATGVPARFSGSGSGTDFTLTISSLEPEDFATYYCQQYSSSPITFGQGTKVEIKR
B3: TP-3F1 (Fab, V domains shown)
VH: QVQLVQSGAEVKKPGESLKISCKGSGYSFTDYWIGWVRQMPGKGLEWMGIIQPSDSDTNYSPSFQGQVTISADKSISTAYLQWSSLKASDTAMYYCARFMWWGKYDSGFDVWGQGTLVTVSS
VL: DIELTQPPSVSVAPGQTARISCSGDNIGSYFASWYQQKPGQAPVLVIYDDSNRPSGIPERFSGSNSGNTATLTISGTQAEDEADYYCEGSNVFGGGTKLTVLG
B4: TP-2A6 (Fab, V domains shown)
VH: QVQLVESGGGLVQPGGSLRLSCAASGFTFSRYAMSWVRQAPGKGLEWVSSIISSSSETYYADSVKGRFTISRDNSKNTLYLQMNSLRAEDTAVYYCARLMGYGHYYPFDYWGQGTLVTVSS
VL: DIELTQPPSVSVAPGQTARISCSGDKIGSKYVYWYQQKPGQAPVLVIYDSNRPSGIPERFSGSNSGNTATLTISGTQAEDEADYYCASYDSIYSYWVFGGGTKLTVLG
B5: TP-3D3 (Fab, V domains shown)
VH: QVQLVESGGGLVQPGGSLRLSCAASGFTFSSYASWVRQAPGKGLEWVSGISGDGSNTHYADSVKGRFTISRDNSKNTLYLQMNSLRAEDTAVYYCARYDNFYFDVWGQGTLVTVSS
VL: DIELTQPPSVSVAPGQTARISCSGDSLGSKFAHWYQQKPGQAPVLVIYDDSNRPSGIPERFSGSNSGNTATLTISGTQAEDEADYYCSTYTSRSHSYVFGGGTKLTVLG
B6: TP-4G8 (Fab, V domains shown)
VH: QVQLVESGGGLVQPGGSLRLSCAASGFTFSTYAMHWVRQAPGKGLEWVSTISGYGSFTYYADSVKGRFTISRDNSKNTLYLQMNSLRAEDTAVYYCARNGRKYGQMDNWGQGTLVTVSS
VL: DIELTQPPSVSVAPGQTARISCSGDKLGSKSVHWYQQKPGQAPVLVIYRDTDRPSGIPERFSGSNSGNTATLTISGTQAEDEADYYCQTYDYILNVFGGGTKLTVLG
B7: TP-4E8 (Fab, V domains shown)
VH: QVQLVESGGGLVQPGGSLRLSCAASGFTFNDYAMSWVRQAPGKGLEWVSLIESVSSSTYYADSVKGRFTISRDNSKNTLYLQMNSLRAEDTAVYYCARTIGVLWDDVWGQGTLVTVSS
VL: DIELTQPPSVSVAPGQTARISCSGDALGSKYVSWYQQKPGQAPVLVIYGDNKRPSGIPERFSGSNSGNTATLTISGTQAEDEADYYCQSYTYSLNQVFGGGTKLTVLG
B8: TP-4H8 (Fab, V domains shown)
VH: QVQLVESGGGLVQPGGSLRLSCAASGFTFSDHAMHWVRQAPGKGLEWVSVIEYSGSKTNYADSVKGRFTISRDNSKNTLYLQMNSLRAEDTAVYYCARGDYYPYLVFAIWGQGTLVTVSS
VL: DIELTQPPSVSVAPGQTARISCSGDSIGKKYVHWYQQKPGQAPVLVIYGDNNRPSGIPERFSGSNSGNTATLTISGTQAEDEADYYCSTADSVITYKNVFGGGTKLTVLG
B9: TP-4A9 (Fab, V domains shown)
VH: QVQLVESGGGLVQPGGSLRLSCAASGFTFSSYGMSWVRQAPGKGLEWVSLISGVSSSTYYADSVKGRFTISRDNSKNTLYLQMNSLRAEDTAVYYCARSYLGYFDVWGQGTLVTVSS
VL: DIELTQPPSVSVAPGQTARISCSGDALGKYYASWYQQKPGQAPVLVIYGDNKRPSGIPERFSGSNSGNTATLTISGTQAEDEADYYCQSYTTRSLVFGGGTKLTVLG

molecular target: ヒトTFPI (human tissue factor pathway inhibitor; American Diagnostica) (human) (UniProt P10646); experiment: ELISA, Fab in bacterial lysate on coated human TFPI

Row | binding | Binder
1 | binds | B1
2 | binds | B2
3 | binds | B3
4 | binds | B4
5 | binds | B5
6 | binds | B6
7 | binds | B7
8 | binds | B8
9 | binds | B9
